Further values from the same series stand in other lists.
Tested on: tyrosine kinase activity in xenograft tumor lysates
Experiment: PAMCHIP96 (140-peptide array) profiling of xenograft tumor lysates in absence or presence of MTKI
Type: biochemical
Conditions: 5 μM
Description: 100 mg of frozen tumor or tissue blocks, or sections, are lysed in 1 ml of M-PER buffer (PIERCE) containing phosphatase and protease inhibitors (HALT, PIERCE). The suspension is mixed using a ULTRA-TURRAX blender (IKA werke), and centrifuged twice for 10 minutes at 12 000×g. Supernatant lysates are filtered through a 0.2 micrometer filter (Anotop 0.2 μm anopore filter; Whatmann). Lysates are flash frozen in liquid nitrogen and stored at −80C.
Just prior to the PAMCHIP experiment, total protein content is quantitated in the lysates and lysates are diluted to 1 mg/ml in a total volume of 200 μl, with M-PER phosphatase and protease inhibitors (HALT, PIERCE). 10 μg of total lysate (corresponding to 10 μl) will be used per well on the PAMCHIP96.
To all 200 μl lysates 10 units of benzonase (Novagen) is added and lysates are further incubated for 30 min on ice and next centrifuged for 10 minutes at 12 000×g. The supernatant is then 1:1 diluted with compound or DMSO diluted to the appropriate concentration in water, and lysates are further incubated exactly 60 min on ice. Meanwhile, a PAMCHIP96 tyrosine peptide chip (PAMGENE) is blocked with 2% BSA (filtered through a 0.2 μm anopore filter; Whatmann) using the standard setting of a PAMSTATION96 (PAMGENE).
The composition of the kinase buffer is as follows: 1×ABL buffer (NEB), 0.5 mg/ml BSA (from 10 mg/ml NEB stock), 100 μM ATP (dissolved and diluted in 1×ABL buffer), 5 μg/ml PY20-FITC (ExAlpha Biologicals, azide-free preparation). A twofold concentrated kinase buffer is prepared chilled on ice, DMSO or compound is added as appropriate, and the solution is added 1:1 to the (compound treated) ice cold lysates, and immediately applied to a tyrosine peptide PAMCHIP96. The assay is run on a PAMSTATION96 according to standard procedures: after loading of the plate, solution is pumped once onto the wells, a first exposure is read (150 mSec) and then a kinetic reading program (reading every 5 min for 150 mSec) is run for 60 min. Lysates are run in 6 technical replicates for each condition; replicates are always applied horizontally next to each other to avoid vertical strip effects of the chip.
The data (spot images) are further quantified and linked to the peptide identities using EVOLVE PAMGRID software (PAMGENE). The quantified data are then fit to a curve using CurveFitHT software (PAMGENE) using the Vinip2 curve fitting algorithm, applied on the first 30 min of the assay; the initial velocity is derived at the first kinetic time point read. All subsequent data analyses were done on initial velocities (Vini) using the software packages Omniviz and R (Ihaka, R. and Gentlemen, R. (1996) R: a language for data analysis and graphics. J. Comput. Graph. Stat., 5, 299-314).
After replacing the Vini's lower than 0.1 by 0.1, all Vini's were log 2-transformed to approach normality. […] This test was done for each peptide separately using a mixed model (Littell, R. C., Milliken, G. A., Stroup, W. W., Wolfinger, R. D. 1996. SAS system for mixed models. Cary, N. C.: SAS Institute Inc.) allowing the incorporation of both technical variation (i.e., the variation across replicates) and biological variation (i.e., the variation among the various responding and non-responding cell lines or tumors). Variation between cell lines or tumors in Vini and in treatment effect on Vini was modeled respectively by random intercepts and random compound effects per cell line or tumor, nested in response status. The difference in compound-induced reduction in Vini between responding and non-responding cell lines or tumors was tested through the interaction between compound treatment and response status, both modeled as fixed effects.

COc1cc2ncnc3c2cc1OCCCCCN(C)Cc1ccc(Br)cc1N3 [MTKI, 4,6-ethanediylidenepyrimido[4,5-b][6,1,12]benzoxadiazacyclopentadecine, 17-bromo-8,9,10,11,12,13,14,19-octahydro-20-methoxy-13-methyl-]
ratio of initial velocity of peptide phosphorylation (A431 xenograft tumor lysate, CREB1_122_134_Y134/S133): 0.67
ratio of initial velocity of peptide phosphorylation (A431 xenograft tumor lysate, DDR1_785_797_Y792/Y796/Y797): 0.58
ratio of initial velocity of peptide phosphorylation (A431 xenograft tumor lysate, DYR1A_212_224_Y219): 0.03
ratio of initial velocity of peptide phosphorylation (A431 xenograft tumor lysate, EPHA4_589_601_Y596): 0.51
ratio of initial velocity of peptide phosphorylation (BT474 xenograft tumor lysate, CDK7_157_169_S164): 0.88
ratio of initial velocity of peptide phosphorylation (BT474 xenograft tumor lysate, CREB1_122_134_Y134/S133): 1.02
ratio of initial velocity of peptide phosphorylation (BT474 xenograft tumor lysate, DDR1_785_797_Y792/Y796/Y797): 0.94
ratio of initial velocity of peptide phosphorylation (BT474 xenograft tumor lysate, DYR1A_212_224_Y219): 0.07
ratio of initial velocity of peptide phosphorylation (BT474 xenograft tumor lysate, EPHA4_589_601_Y596): 0.79
ratio of initial velocity of peptide phosphorylation (DU145 xenograft tumor lysate, CREB1_122_134_Y134/S133): 0.93
ratio of initial velocity of peptide phosphorylation (DU145 xenograft tumor lysate, DDR1_785_797_Y792/Y796/Y797): 0.64
ratio of initial velocity of peptide phosphorylation (DU145 xenograft tumor lysate, DYR1A_212_224_Y219): 0.90
ratio of initial velocity of peptide phosphorylation (DU145 xenograft tumor lysate, EPHA4_589_601_Y596): 0.77
ratio of initial velocity of peptide phosphorylation (H322 xenograft tumor lysate, CREB1_122_134_Y134/S133): 0.80
ratio of initial velocity of peptide phosphorylation (H322 xenograft tumor lysate, DDR1_785_797_Y792/Y796/Y797): 0.71
ratio of initial velocity of peptide phosphorylation (H322 xenograft tumor lysate, DYR1A_212_224_Y219): 0.59
ratio of initial velocity of peptide phosphorylation (H322 xenograft tumor lysate, EPHA4_589_601_Y596): 0.63
ratio of initial velocity of peptide phosphorylation (H3255 xenograft tumor lysate, CREB1_122_134_Y134/S133): 0.61
ratio of initial velocity of peptide phosphorylation (H3255 xenograft tumor lysate, DDR1_785_797_Y792/Y796/Y797): 0.48
ratio of initial velocity of peptide phosphorylation (H3255 xenograft tumor lysate, DYR1A_212_224_Y219): 0.62
ratio of initial velocity of peptide phosphorylation (H3255 xenograft tumor lysate, EPHA4_589_601_Y596): 0.44
ratio of initial velocity of peptide phosphorylation (SUM149 xenograft tumor lysate, CDK7_157_169_S164): 0.93
ratio of initial velocity of peptide phosphorylation (SUM149 xenograft tumor lysate, CREB1_122_134_Y134/S133): 1.02
ratio of initial velocity of peptide phosphorylation (SUM149 xenograft tumor lysate, DDR1_785_797_Y792/Y796/Y797): 0.88
ratio of initial velocity of peptide phosphorylation (SUM149 xenograft tumor lysate, DYR1A_212_224_Y219): 0.10
ratio of initial velocity of peptide phosphorylation (SUM149 xenograft tumor lysate, EPHA4_589_601_Y596): 1.03

Source: patent US20100234238A1, “METHOD FOR PROFILING KINASE INHIBITORS” (Janssen Pharmaceutica N V, priority 2006, published 2010)
